According to article PMC11488585:
No constants are given. Whether binding was seen depends on the method and setting. Binding seen in cells or lysates may run through a third protein. Here binding means that the protein was enriched with, or labelled near, the bait; the list need not be complete.

Sequences of proteins named here, by UniProt entry; tags and fusion partners are left off. A change or cut given only in a name is not applied to a line headed by its entry.
UniProt P05556: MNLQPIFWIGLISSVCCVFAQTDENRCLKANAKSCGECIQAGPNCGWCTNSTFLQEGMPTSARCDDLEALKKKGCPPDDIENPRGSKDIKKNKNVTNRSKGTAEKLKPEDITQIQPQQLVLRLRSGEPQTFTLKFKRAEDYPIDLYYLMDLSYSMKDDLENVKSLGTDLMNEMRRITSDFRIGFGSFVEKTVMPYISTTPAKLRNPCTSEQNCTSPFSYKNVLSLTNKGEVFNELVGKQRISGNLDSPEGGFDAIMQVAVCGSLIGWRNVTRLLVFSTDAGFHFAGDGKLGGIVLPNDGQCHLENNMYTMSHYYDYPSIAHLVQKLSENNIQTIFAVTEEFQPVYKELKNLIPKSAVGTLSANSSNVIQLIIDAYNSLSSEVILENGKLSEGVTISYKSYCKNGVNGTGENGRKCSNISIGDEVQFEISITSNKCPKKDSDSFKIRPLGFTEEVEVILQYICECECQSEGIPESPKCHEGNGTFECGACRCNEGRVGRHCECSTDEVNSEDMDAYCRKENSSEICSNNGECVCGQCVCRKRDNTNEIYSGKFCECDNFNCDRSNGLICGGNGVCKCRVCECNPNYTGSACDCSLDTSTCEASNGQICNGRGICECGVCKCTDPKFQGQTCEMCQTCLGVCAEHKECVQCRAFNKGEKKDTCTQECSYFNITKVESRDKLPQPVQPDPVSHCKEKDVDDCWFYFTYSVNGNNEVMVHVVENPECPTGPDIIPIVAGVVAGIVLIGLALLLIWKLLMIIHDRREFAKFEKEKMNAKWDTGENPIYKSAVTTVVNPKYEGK
UniProt Q13485: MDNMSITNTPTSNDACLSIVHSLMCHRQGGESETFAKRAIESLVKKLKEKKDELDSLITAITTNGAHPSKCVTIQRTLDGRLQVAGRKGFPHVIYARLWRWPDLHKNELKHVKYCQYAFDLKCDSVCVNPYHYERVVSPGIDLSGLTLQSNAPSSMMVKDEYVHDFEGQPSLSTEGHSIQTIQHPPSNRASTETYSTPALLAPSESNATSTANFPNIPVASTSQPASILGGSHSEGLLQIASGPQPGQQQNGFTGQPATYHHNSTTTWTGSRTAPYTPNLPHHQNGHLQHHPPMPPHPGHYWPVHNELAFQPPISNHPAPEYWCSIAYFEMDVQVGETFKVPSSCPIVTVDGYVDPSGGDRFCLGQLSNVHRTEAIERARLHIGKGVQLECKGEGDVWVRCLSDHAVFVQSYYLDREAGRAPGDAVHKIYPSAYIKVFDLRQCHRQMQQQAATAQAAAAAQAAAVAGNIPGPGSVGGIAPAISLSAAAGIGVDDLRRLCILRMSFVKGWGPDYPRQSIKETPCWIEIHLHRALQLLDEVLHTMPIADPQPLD
UniProt Q8N6T7: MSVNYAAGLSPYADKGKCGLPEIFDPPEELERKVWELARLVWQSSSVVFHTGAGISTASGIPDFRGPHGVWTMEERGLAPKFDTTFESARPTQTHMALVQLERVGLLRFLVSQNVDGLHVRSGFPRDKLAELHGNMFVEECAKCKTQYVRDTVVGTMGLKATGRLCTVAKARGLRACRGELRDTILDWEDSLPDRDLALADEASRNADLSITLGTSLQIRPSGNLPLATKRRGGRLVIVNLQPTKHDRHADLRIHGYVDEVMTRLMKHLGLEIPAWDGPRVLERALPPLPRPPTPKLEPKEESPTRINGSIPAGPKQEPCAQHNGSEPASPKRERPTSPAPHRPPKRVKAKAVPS

target: ubiquitin-specific protease 10 (USP10), overexpressed from a lentivirus (UniProt Q14694); assay: affinity purification with mass spectrometry; PC cells overexpressing USP10 from a lentivirus; NP40 lysate; IP with anti-USP10 antibody or control IgG; trypsin digest; LC-MS/MS

binding, binds:
ITGB1 (from UniProt P05556 21-798), SMAD4 (from UniProt Q13485 1-552), SIRT6 (from UniProt Q8N6T7 1-355), RAF1 (from UniProt P04049 1-648)
